Out of some 1,400 compounds screened, about 940 (67%) were called active. The set was probably picked from earlier hits. This list was built around the results that the source calls inconclusive (neither active nor inactive); the mix of calls is not that of the screen. Calls come from the whole dose curve. Potencies of inconclusive entries are doubtful fits and often do not repeat.
Target: Atrial natriuretic peptide receptor 2 (Homo sapiens) (UniProt P20594)
Assay: Natriuretic polypeptide receptor (hNpr2) antagonism - Subtype selectivity assay; note: nearly all actives have a fitted effect of over 70% in size
Conditions: HEK293 hNpr2 GloSensor cGMP luminescence, CNP-stimulated; series mostly up to 57.6 µM
Description: F. Fan, B. F. Binkowski, B. L. Butler, P. F. Stecha, M. K. Lewis, K. V. Wood, Novel genetically encoded biosensors using firefly luciferase. ACS Chem Biol 3, 346-351 (2008).
PROTOCOL TABLE (as described by Inglese J, Shamu CE and Guy RK. 2007) SEQUENCE No. (e.g., 1, 2, 3, etc.); PARAMETER (e.g., Cells, Incubation, Reagent, etc.); VALUE and DESCRIPTION. 1. Cells. Seed 1500 HEK293 cGMP-sensor cells expressing hNpr2 per well in 4uL into Greiner 1536-well white/solid bottom high base, TC plates. 2. Incubation. Incubate plated cells at 37C in 5% CO2, 95% RH overnight. 3. Reagent. Add 1uL per well GloSensor reagent from Promega (2% final concentration) or CO2 independent media vehicle control to respective columns of Greiner 1536-well plates. 4. Incubation. Incubate plated cells at ambient temperature for 2 h., protect from light. 5. Compounds. Library compounds and DMSO vehicle control added at 23nL per well, transferred by Pin Tool. 6. Incubation. Incubate plated cells for 30 min. at ambient temperature, protect from light. 7. Detector. GloSensor baseline pre-read luminescence measured using CCD-based camera (Viewlux). 8. Compound. Add 1uL of hNppC peptide to 1 nM final concentration to stimulate hNpr2 or CO2 independent media as vehicle control. 9. Incubation. Incubate treated cells at ambient temperature for 20 min., protect from light. 10. Detector. GloSensor post-hNppC luminescence measured using CCD-based camera (Viewlux). NOTES (numbers refer to Sequence numbers above) 1. HEK293 cells expressing hNpr2 and GIP/pGS-40F were grown to 85-95% confluence (48-72 h) in T175 culture flasks (CO2 independent media supplemented with 10% FBS, 1% Pen/Strep antibiotics, and 1 ug/mL puromycin). Trypsinize and harvest cells from T175 culture flasks and filter through 40 um cell strainer. Cells counted with Invitrogen Countess (30,000,000 - 50,000,000 cells/flask). Cells diluted to a final concentration of 375 cells/uL in CO2 independent media and a Millipore multidrop used to dispense 1500 cells per well (4uL/well) into 13 1536-well Greiner White/Solid bottom, high base tissue-culture treated (TC) plates and one Aurora 1536-well Black/Clear bottom, low base, TC plate (for visual inspection of cell health throughout the duration of the assay). 2. Cells incubated for 24 h. at 37C in 95% RH incubator with metal lid having gas-exchange holes. 3. Prepare GloSensor Reagent (Promega): Reconstitute GloSensor luciferase substrate by adding 8.2mL Hepes buffer to 250mg substrate, mix well, protect from light and stored at -80C. Prepare a fresh 12% GloSensor solution in CO2 independent supplemented plating media (see above). Mix well and store at ambient temperature, protected from light. 1uL 12% GloSensor Luciferase Reagent added (2% final concentration) to respective columns of 13 x 1536-well Greiner plate with BioRaptr, 1uL CO2 independent plating media added to respective columns as vehicle control with BioRaptr. 4. Cells incubated for 2 h. at ambient temperature, protected from light with metal lid having gas-exchange holes. 5. 23nL of library compounds or DMSO vehicle control transferred to 13 Greiner white/solid bottom high base, TC plates in 11 interplate 1:3 titrations (see Yasgar, A. et al. 2008) with Pintool. 6. Cells incubated for 30-50 min. at ambient temperature protected from light with metal lid having gas-exchange holes. 7. Read cellular baseline GloSensor luminescence in presence of test library compounds on the ViewLux [Exposure = 10 s.; Gain = High; Speed = Slow; and Binning = 2X.] 8. hNppC peptide agonist solution prepared at 1 mM (in H2O) stock concentration. From this a working dilution was prepared at 6 nM in CO2 Independent media. 1uL of 6 nM hNppC agonist (1 nM final concentration) or CO2 Independent media vehicle control dispensed into respective columns of 13 x Greiner 1536-well white/solid bottom, tissue culture plates with BioRaptr. 9. Cells incubated for 20 min. at ambient temperature, protected from light with metal lid having gas-exchange holes. 10. […]
Potency is the fitted concentration of half-maximal effect.

Protein sequences, listed by entry. Tags and fused reporters are not part of them. Lines headed by an entry give the natural chain unless they say otherwise; changes in a name come on top.
UniProt P20594: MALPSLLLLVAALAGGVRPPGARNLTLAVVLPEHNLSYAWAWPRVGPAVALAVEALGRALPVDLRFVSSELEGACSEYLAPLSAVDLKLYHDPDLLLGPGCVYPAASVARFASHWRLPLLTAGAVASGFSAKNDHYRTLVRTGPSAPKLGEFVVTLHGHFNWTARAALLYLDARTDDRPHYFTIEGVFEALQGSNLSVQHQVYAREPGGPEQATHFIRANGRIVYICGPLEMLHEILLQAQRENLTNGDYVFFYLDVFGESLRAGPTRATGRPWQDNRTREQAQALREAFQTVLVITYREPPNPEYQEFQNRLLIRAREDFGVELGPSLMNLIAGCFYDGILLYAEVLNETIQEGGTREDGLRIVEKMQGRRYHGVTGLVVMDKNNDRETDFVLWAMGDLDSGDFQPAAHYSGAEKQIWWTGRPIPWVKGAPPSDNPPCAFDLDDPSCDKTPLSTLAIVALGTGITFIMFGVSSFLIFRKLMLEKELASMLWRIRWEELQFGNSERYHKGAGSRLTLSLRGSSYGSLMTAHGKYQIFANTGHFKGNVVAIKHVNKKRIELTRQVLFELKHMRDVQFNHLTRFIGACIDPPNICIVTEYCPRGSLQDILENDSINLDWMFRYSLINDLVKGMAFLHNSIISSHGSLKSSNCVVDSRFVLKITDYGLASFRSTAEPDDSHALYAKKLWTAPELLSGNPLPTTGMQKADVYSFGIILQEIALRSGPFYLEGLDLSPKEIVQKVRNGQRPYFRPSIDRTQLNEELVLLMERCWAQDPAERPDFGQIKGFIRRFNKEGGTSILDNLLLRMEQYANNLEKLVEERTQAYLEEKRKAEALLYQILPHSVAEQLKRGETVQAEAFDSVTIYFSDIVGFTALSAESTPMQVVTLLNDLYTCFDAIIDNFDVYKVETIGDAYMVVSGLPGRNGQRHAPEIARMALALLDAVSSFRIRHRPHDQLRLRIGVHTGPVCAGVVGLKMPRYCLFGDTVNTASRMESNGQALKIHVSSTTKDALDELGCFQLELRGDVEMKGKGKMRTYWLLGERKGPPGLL

| SMILES | Potency |
| --- | --- |
| O=C1Nc2ccccc2CN(Cc2ccccc2)C12CCNCC2 | active: 17.2 µM |
| Cc1ccc(OCC(=O)N2CCCC(c3nn(C)c(=O)n3C(C)C)C2)cc1 (stereo not given) | inconclusive: 27.3 µM [inhibitor, single point] |
| COc1ccc(NC(=O)c2cc3n(n2)CC(c2ccc(Br)cc2)OC3)cc1OC (stereo not given) | inactive |
| O=C(Nc1cccc(F)c1)C1CCN(c2cc(C(F)(F)F)ncn2)CC1 | inconclusive: 21.7 µM [inhibitor, partial curve] |
| COC(=O)[C@@H]1Cc2ncn(Cc3ccc(Cl)cc3)c2CN1C(=O)c1cccs1 | inactive |
| CC1(COCC2CC2)COc2ccc(C(=O)Nc3cccnc3)cc2N1 (stereo not given) | inactive |
| Clc1ccc(CN2CCC3(CC2)CC(c2cccnc2)=NO3)cc1 | inconclusive: 21.5 µM [inhibitor, partial curve] |
| CC1(C(=O)NCc2ccc3c(c2)OCO3)CCc2cnc(NCc3ccccc3)nc21 (stereo not given) | active: 35.3 µM |
| CC(C)(C)c1noc(-c2nnn3c2COC(c2ccc(F)cc2)C3)n1 (stereo not given) | inconclusive: 13.7 µM [inhibitor, full curve] |
| CCc1ccc(NC(=O)c2cc3n(n2)CC(c2ccc(Cl)cc2)OC3)cc1 (stereo not given) | inconclusive: 19.3 µM [inhibitor, partial curve] |
| O=C(CCc1ccccc1)N1CCC(c2nc(C3CCOCC3)no2)C1 (stereo not given) | inactive |
| CC1=NS(=O)(=O)N(C)C=C1C(=O)OCc1nc(C2CCCCC2)no1 | inconclusive: 17.2 µM [inhibitor, partial curve] |
| O=C(Nc1ccc(F)c(Cl)c1)c1cc2n(n1)CC(c1ccc3c(c1)OCO3)OC2 (stereo not given) | inconclusive: 43.2 µM [inhibitor, single point] |
| Cc1ccc(NC(=O)CN2C(=O)NC(c3ccc(Cl)cc3)C3=C2COC3=O)c(Cl)c1 (stereo not given) | inactive |
| CCCc1cc(CN(C)c2nc(CCN)nc3sc(C)c(C)c23)[nH]n1 | inconclusive: 21.7 µM [inhibitor, partial curve] |
| O=C(Nc1ccc(F)cc1)c1cc2n(n1)CC(c1ccc(Br)cc1)OC2 (stereo not given) | inconclusive: 19.3 µM [inhibitor, partial curve] |
| O=C(NCCc1ccccc1)C1CCc2ncc(-c3ccsc3)n2C1 (stereo not given) | inactive |
| CCCN1C(=O)Cc2cc(C(=O)NC(C)c3ccc(OCC)cc3)ccc21 (stereo not given) | inconclusive: 17.2 µM [inhibitor, partial curve] |
| O=C(Nc1ccc(F)cc1)C1CCN(c2cc(C(F)(F)F)ncn2)CC1 | inconclusive: 19.3 µM [inhibitor, partial curve] |
| c1ccc(-n2cc(CN3CCC(Oc4ccncc4)CC3)nn2)cc1 | inconclusive: 38.5 µM [inhibitor, single point] |
| Cc1ccc(S(=O)(=O)NC[C@H]2O[C@H](Cc3cc(-c4cccc(O)c4)on3)CC[C@@H]2O)cc1 | inconclusive: 19.3 µM [inhibitor, partial curve] |
| Cc1nn2c(c1-c1cccnc1N1CCOCC1)N(C(=O)Cc1cccc(Cl)c1)CCC2 | inconclusive: 17.2 µM [inhibitor, partial curve] |

Pulled one by one from the list above, two records:

| SMILES | Potency |
| --- | --- |
| CCCN1C(=O)Cc2cc(C(=O)NC(C)c3ccc(OCC)cc3)ccc21 (stereo not given) | inconclusive: 17.2 µM [inhibitor, partial curve] |
| O=C(Nc1ccc(F)c(Cl)c1)c1cc2n(n1)CC(c1ccc3c(c1)OCO3)OC2 (stereo not given) | inconclusive: 43.2 µM [inhibitor, single point] |

More results:

| SMILES | Potency |
| --- | --- |
| CCCCOc1ccc(C(=O)N2CCC(Cc3nc(-c4cnccn4)no3)CC2)cc1 | inconclusive: 30.6 µM [inhibitor, single point] |
| Cc1ccc(C(=O)N[C@H]2CO[C@H]3[C@@H]2OC[C@@H]3Nc2nccc(-c3ccc(-c4ccccc4)cc3)n2)cc1 | inactive |
| O=C(NC1CCCCC1)O[C@@H]1CO[C@H]2[C@@H]1OC[C@@H]2Nc1nccc(-c2cccs2)n1 | active: 7.89 µM |
| O=S(=O)(c1ccc(Cl)cc1)N1CCOC[C@H](Oc2ccc(C(F)(F)F)cc2)C1 | inconclusive: 30.6 µM [inhibitor, single point] |
| COC(=O)c1cccc(NC(=O)CCNc2c(C)nc3cnccn23)c1 | inconclusive: 24.3 µM [inhibitor, partial curve] |
| COc1ccc(CN2C(=O)[C@@H]3C[C@@H](CN3C3CCC3)Oc3ccccc32)cc1 | inconclusive: 25 µM [inhibitor, partial curve] |
| COc1cccc(C(=O)N2CCC3(C2)NC(=O)N(Cc2ccc(Cl)cc2)C3=O)c1 (stereo not given) | inconclusive: 34.3 µM [inhibitor, single point] |
| COc1nccc(N2CCC(CC(=O)NCc3ccccc3F)CC2)n1 | inconclusive: 21.7 µM [inhibitor, partial curve] |
| Fc1ccc(CN2CCOC[C@H]2c2ncc(-c3ccc(F)cc3)[nH]2)cc1 | inconclusive: 25 µM [inhibitor, partial curve] |
| CC(C)c1nncn1C1CCN(S(=O)(=O)c2cccc(Br)c2)CC1 | inconclusive: 19.3 µM [inhibitor, partial curve] |
| COc1ccc(C(=O)N2CCC3(CC2)N=C(c2cccc(Br)c2)NO3)cc1F | inconclusive: 24.3 µM [inhibitor, partial curve] |
| COc1ccc(CN2CCOC[C@H]2c2ncc(-c3ccc(C)cc3)[nH]2)cc1 | inconclusive: 25 µM [inhibitor, partial curve] |
| COc1cc(OC)c(NC(=O)Cn2c(N(C)Cc3ccccc3)nc(C)cc2=O)cc1Cl | active: 21.7 µM |
| O=C1[C@@H]2C[C@@H](CN2Cc2ccc(C(F)(F)F)cc2)Oc2ccccc2N1Cc1cccnc1 | inactive |
| CCCNC(=O)c1cc(-c2ccc(F)cc2)cn1C | inactive |
| CC(C)c1noc(-c2cn(C3CCN(C(=O)c4ccc(N(C)C)cc4)C3)nn2)n1 (stereo not given) | inconclusive: 27.3 µM [inhibitor, single point] |
| O=C(NC1CCOCC1)c1ccc2c(c1)OCCN(c1cccc(OC(F)(F)F)c1)C2 | inconclusive: 55.9 µM [inhibitor, single point] |
| COc1ccccc1C(CC(=O)NCC(C)C)c1cn(C)c2ccccc12 (stereo not given) | inconclusive: 17.2 µM [inhibitor, partial curve] |
| COc1ccc(C(=O)Nc2ccc3c(c2)CN(Cc2ccc(F)cc2)C(=O)C(C)O3)c(OC)c1 (stereo not given) | inconclusive: 30.6 µM [inhibitor, partial curve] |
| O=C(N[C@H]1CO[C@H]2[C@@H]1OC[C@@H]2Nc1nccc(-c2ccc(-c3ccccc3)cc2)n1)C1CCCCC1 | inconclusive: 34.3 µM [inhibitor, single point] |
| COc1nccc(N2CCC(CC(=O)N(C)CCCc3c(C)nn(C)c3C)CC2)n1 | inconclusive: 24.3 µM [inhibitor, partial curve] |
| COc1cccc(-c2noc(CC3CCN(C(=O)c4ccc(OC)cc4C)CC3)n2)c1 | active: 4.85 µM |

| SMILES | Potency |
| --- | --- |
| C=CCN(C)C(=O)CC1COc2ccc(C(=O)N(C)C)cc2N1C (stereo not given) | inactive |
| O=C(Cc1ccc(Br)cc1)N1CCCN(c2cc(-c3ccc(F)cc3)[nH]n2)CC1 | inconclusive: 24.3 µM [inhibitor, partial curve] |
| COc1ccc([S+](=O)([O-])N2CCC3(CC2)OCCN(CC2CC2)C3=O)cc1 | inconclusive: 31.4 µM [inhibitor, partial curve] |
| COc1ccc(CC(=O)N2CCC(Cc3nc(-c4ccc(F)cc4)no3)CC2)cc1 | active: 6.85 µM |
| CN(Cc1ccc(F)cc1)c1ccc2ncc(Nc3ccnc(N4CCOCC4)c3)n2n1 | active: 15.7 µM |
| O=C(CN1C(=O)NC(c2ccc(Cl)cc2)C2=C1COC2=O)Nc1ccc(F)c(Cl)c1 (stereo not given) | inconclusive: 17.2 µM [inhibitor, partial curve] |
| CC(=O)Nc1ccc(S(=O)(=O)N[C@H]2CO[C@H]3[C@@H]2OC[C@H]3OC(=O)Nc2cccc3ccccc23)cc1 | inactive |
| CCOc1ccccc1C1NC(=O)N(CC(=O)Nc2cccc(C(F)(F)F)c2)C2=C1C(=O)OC2 (stereo not given) | inactive |
| COc1ccc(C(=O)N2CCC(Cc3nc(-c4ccc(F)cc4)no3)CC2)c(C)c1 | active: 2.17 µM |
| O=C(CCC1CC1)N1CCC(c2cc(Cc3ccccc3)[nH]n2)CC1 | inactive |
| Cc1cccc(-c2cccc(CN)c2)c1 | inconclusive: 44.4 µM [inhibitor, single point] |
| Cn1ccc2c(C(=O)NCc3cccnc3)nc(-c3cccc4cc[nH]c34)cc21 | inconclusive: 39.6 µM [inhibitor, partial curve] |
| O=C(NC1CCN(c2cc(-c3ccc(F)cc3)[nH]n2)CC1)c1cccc2[nH]ccc12 | inconclusive: 17.2 µM [inhibitor, partial curve] |
| CN(Cc1ccnc2ccccc12)C(=O)c1cn(Cc2ccc(Cl)cc2)nn1 | active: 17.2 µM |
| Cc1ccccc1-c1cnc2[nH]cc(CC(=O)N3CCCC3)c2c1 | active: 11.1 µM |
| COc1ccc(S(=O)(=O)N2CCc3c(C(=O)NCc4cccc(F)c4)cccc32)cc1 | inconclusive: 19.3 µM [inhibitor, partial curve] |
| CC1=NS(=O)(=O)N(C)C=C1C(=O)OCc1nc(-c2cccs2)no1 | inconclusive: 27.3 µM [inhibitor, partial curve] |
| Cc1ccc2nc(C3CCN(Cc4ccc(C#N)cc4)CC3)[nH]c(=O)c2c1 | inconclusive: 12.2 µM [inhibitor, partial curve] |
| CNc1nccc(N2CCC(CC(=O)N3CCN(c4ccccc4C)CC3)CC2)n1 | inconclusive: 27.3 µM [inhibitor, partial curve] |
| COc1ccccc1CCC(=O)N1CCC2(CC1)N=C(c1cccc(Br)c1)NO2 | inconclusive: 17.2 µM [inhibitor, partial curve] |
| Clc1cccc(-c2cnc([C@@H]3COCCN3Cc3cnc4ccccc4c3)[nH]2)c1 | inconclusive: 44.4 µM [inhibitor, single point] |

Source: PubChem BioAssay AID1347046 (National Center for Advancing Translational Sciences (NCATS), 2019)
